In test [1] the target is Pyruvate kinase muscle protein (PKM2), exogenous, in HEK293 cells (UniProt P14618). As to the kind of experiment: co-IP; HEK293 cells co-transfected with CPNE7-OE and PKM2-OE lentivirus; lysate precleared with A/G PLUS agarose at 4°C for 2 hours; primary antibody 1 hour at 4°C, agarose overnight at 4°C; Western blot; both directions. Background: In western blotting, separated proteins are transferred to a membrane and probed.

The chains behind the UniProt entries cited, without tags or fusion partners.
UniProt P14618: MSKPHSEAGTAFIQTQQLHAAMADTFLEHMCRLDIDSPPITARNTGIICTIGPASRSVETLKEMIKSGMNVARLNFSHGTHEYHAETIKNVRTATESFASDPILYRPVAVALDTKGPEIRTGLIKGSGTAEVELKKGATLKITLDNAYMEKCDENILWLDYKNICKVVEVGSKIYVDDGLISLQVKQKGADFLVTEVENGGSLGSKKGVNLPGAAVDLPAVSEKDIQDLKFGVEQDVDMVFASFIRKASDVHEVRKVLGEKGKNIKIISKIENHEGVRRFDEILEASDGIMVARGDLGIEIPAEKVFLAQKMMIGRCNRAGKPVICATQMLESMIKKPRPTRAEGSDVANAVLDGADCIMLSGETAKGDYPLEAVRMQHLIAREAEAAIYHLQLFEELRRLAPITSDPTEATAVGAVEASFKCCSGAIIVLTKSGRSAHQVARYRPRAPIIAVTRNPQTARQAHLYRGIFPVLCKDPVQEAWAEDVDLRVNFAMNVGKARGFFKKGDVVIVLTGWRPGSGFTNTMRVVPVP
UniProt Q9UBL6: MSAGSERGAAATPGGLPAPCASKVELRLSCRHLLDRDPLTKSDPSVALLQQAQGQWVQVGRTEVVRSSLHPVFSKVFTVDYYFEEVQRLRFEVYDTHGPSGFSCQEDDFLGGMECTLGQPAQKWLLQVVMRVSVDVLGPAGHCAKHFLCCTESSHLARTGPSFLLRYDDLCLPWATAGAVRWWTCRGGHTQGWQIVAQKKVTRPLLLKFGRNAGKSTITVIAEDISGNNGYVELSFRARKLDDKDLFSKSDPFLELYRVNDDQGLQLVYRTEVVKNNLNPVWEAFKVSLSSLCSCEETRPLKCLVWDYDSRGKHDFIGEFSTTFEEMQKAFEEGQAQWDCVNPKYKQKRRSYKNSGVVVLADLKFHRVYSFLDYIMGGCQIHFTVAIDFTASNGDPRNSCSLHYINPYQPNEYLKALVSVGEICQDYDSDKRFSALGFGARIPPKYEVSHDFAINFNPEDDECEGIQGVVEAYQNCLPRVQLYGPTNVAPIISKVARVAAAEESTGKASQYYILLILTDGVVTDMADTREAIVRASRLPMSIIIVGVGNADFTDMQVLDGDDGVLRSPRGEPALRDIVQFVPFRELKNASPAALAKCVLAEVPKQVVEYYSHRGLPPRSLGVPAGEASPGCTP

Test [2] addresses Copine 7 (CPNE7), exogenous, in HEK293 cells (UniProt Q9UBL6). Described as above.

These are yes or no findings as the source states them, for the method shown. Binding seen in cells or lysates may run through a third protein. Some results given as binding are weak or reduced against the parent protein; the word gives no strength.

For “Copine 7 (CPNE7), exogenous, in HEK293 cells (from UniProt Q9UBL6 1-633)”, the binding entry in test [1] is given as “binds”. For the substance “Pyruvate kinase muscle protein (PKM2), exogenous, in HEK293 cells (from UniProt P14618 1-531)”, the binding result in test [2] is given as “binds”.
